Results from paper PMC5335514.
These are yes or no findings as the source states them, for the method shown. In cells and extracts the contact can be indirect. Some entries that bind do so weakly or less than the wild type.

By UniProt entry, the sequences of proteins in these tests, tags left out.
UniProt P27695: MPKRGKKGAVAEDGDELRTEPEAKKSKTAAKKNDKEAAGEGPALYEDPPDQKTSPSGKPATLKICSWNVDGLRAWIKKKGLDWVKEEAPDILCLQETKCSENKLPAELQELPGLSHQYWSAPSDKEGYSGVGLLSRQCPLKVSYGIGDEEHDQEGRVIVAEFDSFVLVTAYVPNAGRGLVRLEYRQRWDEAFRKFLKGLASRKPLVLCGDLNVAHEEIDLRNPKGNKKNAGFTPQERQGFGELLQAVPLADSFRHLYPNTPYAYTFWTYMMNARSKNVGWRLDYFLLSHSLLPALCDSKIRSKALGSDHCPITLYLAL
UniProt P18887: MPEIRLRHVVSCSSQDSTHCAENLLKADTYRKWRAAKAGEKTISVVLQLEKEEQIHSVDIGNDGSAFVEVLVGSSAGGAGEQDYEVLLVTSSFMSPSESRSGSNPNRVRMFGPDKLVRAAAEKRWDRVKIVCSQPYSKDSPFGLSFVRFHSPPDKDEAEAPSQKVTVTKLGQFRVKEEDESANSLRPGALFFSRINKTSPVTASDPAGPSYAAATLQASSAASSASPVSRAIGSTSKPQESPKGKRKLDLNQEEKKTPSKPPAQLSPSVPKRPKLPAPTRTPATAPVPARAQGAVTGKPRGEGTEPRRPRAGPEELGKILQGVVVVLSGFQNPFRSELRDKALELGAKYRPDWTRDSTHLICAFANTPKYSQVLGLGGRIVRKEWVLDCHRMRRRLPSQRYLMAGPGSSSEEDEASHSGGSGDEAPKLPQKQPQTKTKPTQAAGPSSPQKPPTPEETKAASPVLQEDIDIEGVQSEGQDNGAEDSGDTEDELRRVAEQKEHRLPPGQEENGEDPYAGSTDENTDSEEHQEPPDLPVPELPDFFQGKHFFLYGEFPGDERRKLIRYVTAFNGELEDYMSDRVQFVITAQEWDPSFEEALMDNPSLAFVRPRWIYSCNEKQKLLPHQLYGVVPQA

Target: FLAG-tagged WT APE1 (human apurinic/apyrimidinic endonuclease) (human) (UniProt P27695)
Experiment: co-IP; nuclear extract of HEK293T cells overexpressing FLAG-tagged WT or K5R APE1, treated with TSA-nicotinamide for 6 h or not; precipitated with anti-FLAG Ab, blotted with anti-XRCC1 and anti-FLAG

binding: binds
Substance: XRCC1 (from UniProt P18887 1-633) (other; other documents disagree on this pair)
